Test results from PubChem BioAssay AID624415 (National Center for Advancing Translational Sciences (NCATS), 2012).
“And” between values parts separate entries of the source, which are not always exact repeats. Equal values may be shown once. In all, about 390,000 compounds went through this assay and about 60 (0.02%) were called active. This list was built around the results that the source calls inconclusive (neither active nor inactive); the mix of calls is not that of the screen. No stated cut-off is given here; in the data, active means activity change below about -50%; inconclusive means between about -30% and that limit; inactive means weaker than that. Where a structure was tested more than once in an assay, its records may differ in their call.

By UniProt entry, the sequences of proteins in these tests, tags left out.
UniProt Q9GZU1, whole entry, looked up: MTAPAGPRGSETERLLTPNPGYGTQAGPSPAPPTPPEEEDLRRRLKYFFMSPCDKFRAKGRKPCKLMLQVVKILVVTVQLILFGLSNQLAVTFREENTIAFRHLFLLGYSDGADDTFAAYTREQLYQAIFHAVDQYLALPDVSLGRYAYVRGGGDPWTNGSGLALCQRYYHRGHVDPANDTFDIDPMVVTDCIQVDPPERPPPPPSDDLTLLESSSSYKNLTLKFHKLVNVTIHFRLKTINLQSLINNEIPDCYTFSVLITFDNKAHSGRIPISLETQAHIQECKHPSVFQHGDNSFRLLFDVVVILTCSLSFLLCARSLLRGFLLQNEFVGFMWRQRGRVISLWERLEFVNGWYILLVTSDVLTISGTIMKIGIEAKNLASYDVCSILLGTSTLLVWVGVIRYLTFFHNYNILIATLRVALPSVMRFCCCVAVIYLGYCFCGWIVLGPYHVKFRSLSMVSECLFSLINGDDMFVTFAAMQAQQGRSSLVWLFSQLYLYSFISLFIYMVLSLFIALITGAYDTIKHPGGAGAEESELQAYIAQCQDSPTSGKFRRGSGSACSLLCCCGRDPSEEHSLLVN

What follows are molecules tested against Mucolipin-1 (Homo sapiens) (UniProt Q9GZU1) (assay: qHTS for Inhibitors of the Human Mucolipin Transient Receptor Potential 1 (TRPML1)). Details: TRPML1-inducible cells, Ca2+ dye fluorescence, FDSS; hits give low values; inhibition of EC80 agonist-evoked calcium signal.
In short: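 TRPML1-DL cells, Tet-induced overnight (~16 h, 37 °C) at 1,500 cells/well, were loaded with Ca8 no-wash dye plus quencher for 45-90 min at room temperature. Compounds were pinned during FDSS kinetic reading; agonist 54-4 at EC80 (4 uM final) then added.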
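Further: stimulus is agonist 54-4 at its EC80 concentration.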
On the % scale 0 is the no-effect control and ±100 the full control effect.

SMILES | activity change, negative = inhibition
CC(=O)NCCC(=O)N1CCCC(N(C)CCc2ccccc2)C1 (stereo not drawn) | inconclusive: -37.5%
COc1ccc(CCNC(=S)NC2CCN(Cc3ccccc3)CC2)cc1 | inactive: -7.16%
CC(c1ccccn1)N(Cc1ccco1)C(=S)Nc1cccc(F)c1 (stereo not drawn) | inconclusive: -30.3%
O=C(O)CN1C(=O)/C(=C/c2ccccc2Br)Oc2ccccc21 | inconclusive: -34.5%
CCc1nc(=O)c(-c2ccccc2)c(C)n1-c1ccccc1 | active: -53.3%
N#Cc1c(N)n(-c2cccc(C(=O)O)c2)c2nc3ccccc3nc12 | inconclusive: -32%
CC(=O)Nc1ccc2sc(C)nc2c1 | inactive: 4.32%
COc1ccc(C(=O)CCN2CCN(c3ccccc3OC)CC2)cc1 | inactive: -8.06%
COc1cc(NC(=O)CN2c3ccccc3S(=O)(=O)c3ccccc32)cc(OC)c1 | inconclusive: -31.5%
CSc1ccc(CCNC(=O)C(C)n2nc(C)c3sc4ccccc4c3c2=O)cc1 (stereo not drawn) | inactive: 2.28%
CC(C)CCn1nnc2sc(-c3ccccc3)cc2c1=O | inconclusive: -39.7%
O=C(CSc1nc(-c2ccccc2)c(-c2ccccc2)o1)Nc1nncs1 | inactive: -1.67%
Cc1cc(C)c(NC(=O)CCn2c(=O)c3cccn3c3ccccc32)c(C)c1 | inconclusive: -33.1%
COc1ccc2nc(NC(=O)[C@@H]3CCCN3C(=O)c3cccs3)sc2c1 | inconclusive: -31.8%
CSc1nc2cc(C)nn2c(-c2ccc(C(C)(C)C)cc2)c1C#N | inconclusive: -45.7%
O=C(Nc1ccc(F)cc1)N1CCN(C(=O)C2CCCO2)CC1 (stereo not drawn) | inconclusive: -43%
C=CCN1C(=O)C(=O)N(Cc2nc3ccccc3s2)C1=O | inconclusive: -32.3%
Cc1ccc(Cl)cc1NC(=O)NCc1cccn1Cc1ccc(F)cc1 | inconclusive: -33%
COc1ccc(-c2nc(C)c(CCNC(=O)c3c(F)cccc3F)s2)cc1 | inconclusive: -31.9%
CCCCn1c(NC(=O)c2ccco2)c(S(=O)(=O)c2ccc(C)cc2)c2nc3ccccc3nc21 | inactive: 8.78%
O=C(CNC(=O)c1ccc(Cl)cc1)NC(CO)c1ccccc1 (stereo not drawn) | inconclusive: -32.9%
Cc1[nH]n(-c2ccccc2)c(=O)c1/C=N/NC(=O)C(C)C | inconclusive: -38.1%

Quoted from the results shown (three entries):
SMILES | activity change, negative = inhibition
CC(=O)NCCC(=O)N1CCCC(N(C)CCc2ccccc2)C1 (stereo not drawn) | inconclusive: -37.5%
COc1ccc(CCNC(=S)NC2CCN(Cc3ccccc3)CC2)cc1 | inactive: -7.16%
CC(c1ccccn1)N(Cc1ccco1)C(=S)Nc1cccc(F)c1 (stereo not drawn) | inconclusive: -30.3%

The list goes on.

SMILES | activity change, negative = inhibition
N/C(=N\OC(=O)CCC1CCCC1)c1ccccn1 | inactive: 14.2%
CCN(CC)c1ccc(NS(=O)(=O)c2ccc3c(c2)CCCN3C(C)=O)c(C)c1 | inactive: -11.9%
O=c1[nH]c(SCc2ccc(F)cc2)nc2c1CCCC2 | inconclusive: -30.1%
Cc1ccc(C(=O)CSc2nccn2-c2ccccc2)cc1 | inconclusive: -33.9%
COc1ccc(-c2cc(=O)oc3cc(OCC(=O)NCCN4CCOCC4)ccc23)cc1 | inconclusive: -33.7%
Cc1ccc(C)c(NC(=O)C2CC(=O)N(C(C)C)C2)c1 (stereo not drawn) | inconclusive: -30.8%
O=C(CSc1ccc2nnc(-c3cccc(F)c3)n2n1)N1CCCc2ccccc21 | inconclusive: -45.9%
O=c1cc(CN2CCCCCC2)nc2sccn12 | inactive: 15.7%
CN(C)CCCNC(=O)C[C@H]1C[C@H](C(=O)N2CCOCC2)[C@@]2(C)c3[nH]c4cc(-c5ccco5)ccc4c3CCN2C1=O | inconclusive: -31.4%
N=c1sccn1CC(=O)Nc1cc(Cl)ccc1Oc1ccccc1 | inconclusive: -32.9%
Cc1nc(N2CCC(C)CC2)c2c(C)c(C(=O)Nc3cccc(C(F)(F)F)c3)sc2n1 | inactive: 63.4%
COc1ccc(C(CNC(=O)c2cc(S(=O)(=O)N3CCCCC3)ccc2C)N2CCCC2)cc1 (stereo not drawn) | inactive: -19.4%
COC(=O)CSc1nc(C)c(Oc2ccccc2)c(=O)[nH]1 | inconclusive: -31.8%
CC(C)CC(=O)NC1(C(F)(F)F)C(=O)Nc2c1c(=O)[nH]c(=O)n2Cc1ccco1 (stereo not drawn) | inconclusive: -32.4%
COCCN1C(=O)N[C@@H](CCc2ccccc2)[C@H](C(=O)OC)[C@H]1C | inconclusive: -38.8%
CC(C)(C)NC(=O)CSc1nc2cccnc2n1C1CCCCC1 | inactive: 25.5%
Cc1ccc(C)c(NC(=O)CN(C)S(=O)(=O)c2cccc3cccnc23)c1 | inactive: 2.49% and inactive: 19.4%
Cc1cccc(NC(=S)N(Cc2cccc(Br)c2)CC2CCC(C(=O)O)CC2)c1 (stereo not drawn) | inconclusive: -40.9%
COC(=O)Cc1cnc(NC(=O)CSc2nc(C(C)C)cc(=O)[nH]2)s1 | inconclusive: -32%
Cn1c(=O)c2c(nc(CN3CCN(C(=O)c4ccco4)CC3)n2CC(=O)C(C)(C)C)n(C)c1=O | inconclusive: -33.9%
Cc1ccc(NC(=O)C(=O)NN)cc1 | inconclusive: -33.3%
CCOc1ccc(-n2c(-c3ccccc3)c[n+]3c2CCC3)cc1 | inactive: 25.6%

SMILES | activity change, negative = inhibition
Cn1cc(C(=O)c2cccc(Cl)c2)cc1/C=N\O | inconclusive: -32.7%
Cc1ccc(NC(=O)c2cc3c(-c4ccccc4)nn(-c4ccccc4)c3s2)cc1 | inactive: -8.09%
N#Cc1ccsc1NC(=O)CSc1nnc(NC2CC2)s1 | inconclusive: -30.1%
Cc1cc2n(n1)CCCN2C(=O)Nc1ccc(F)c(Cl)c1 | inconclusive: -30.1%
CCCc1cc(=O)[nH]c(SCC)n1 | inconclusive: -35.9%
CC(C)CC(=O)Nc1ccc(C(=O)COc2ccc(-c3nnco3)cc2)cc1 | inconclusive: -30.1%
Cn1nc(C(=O)Nc2nnc(C3CC3)s2)c2ccccc2c1=O | inconclusive: -31.1%
COc1cc2c(C(=O)NC3CCCCCC3)cn(C)c(=O)c2cc1OC | inconclusive: -33.7%
Cc1cc(-c2ccc(S(=O)(=O)N(C)Cc3ccccc3)cc2)on1 | inconclusive: -32.7%
CCCCN(C)C1=CC2=CC(=C(C#N)C#N)CCC2CC1 (stereo not drawn) | active: -64.3%
COc1ccc(NC(=O)CN(C)S(=O)(=O)c2ccc3c(c2)c(=O)n(C)c(=O)n3C)cc1 | active: -87.2%
O=C(c1ccc(F)cc1)N1CCN(c2ccccn2)CC1 | inactive: 6.55%
CCCCn1c2c(c(=N)c3c1CCC3)CCC2 | inactive: -7.44%
O=C(Nc1ccc([N+](=O)[O-])cc1)C1CC1(c1ccccc1)c1ccccc1 (stereo not drawn) | inconclusive: -30%
COc1cc(NC(C)CCCN)c2ncccc2c1 (stereo not drawn) | inactive: 1.92%
CCC/C(=C1/C(=O)CC(C)(C)C(C(=O)OC)C1=O)N1CCCC1 (stereo not drawn) | inconclusive: -33%
CC1CCN(c2nnc(-c3cccs3)c3ccccc23)CC1 | inactive: 51.8%
CC1CCC(n2c(=S)[nH]c3ccccc3c2=O)CC1 (stereo not drawn) | inactive: 4.87%
O=C(NC(=S)Nc1cccc2c(O)cccc12)c1ccco1 | inactive: 7.35%
CC(=O)Oc1ccc2c(c1)Oc1cc(OC(C)=O)ccc1C21OC(=O)c2ccccc21 | inactive: -21.1%
Cc1cccc(-c2noc(CN(C)S(=O)(=O)c3cc(Cl)ccc3Cl)n2)c1 | inconclusive: -36.2%
O=C(Nc1ccc([N+](=O)[O-])cc1)C(=O)Nc1cccc(C(=O)O)c1 | inactive: 24.9%

An excerpt from above in order of SMILES length, rising.
SMILES | activity change, negative = inhibition
O=C(Nc1ccc(F)cc1)N1CCN(C(=O)C2CCCO2)CC1 (stereo not drawn) | inconclusive: -43%
O=C(CSc1ccc2nnc(-c3cccc(F)c3)n2n1)N1CCCc2ccccc21 | inconclusive: -45.9%
Cc1cccc(-c2noc(CN(C)S(=O)(=O)c3cc(Cl)ccc3Cl)n2)c1 | inconclusive: -36.2%

Going on with the list:

SMILES | activity change, negative = inhibition
CC(=O)N[C@H]1C[C@@H]1c1ccccc1 | inconclusive: -30.5%
Cc1cccc(CC(=O)N2CCN(C(=O)c3ccco3)CC2)c1 | inconclusive: -36.1%
Cc1ccc(-c2nnn(CC(=O)N(CCN3CCOCC3)C(C(=O)NC(C)(C)C)c3ccc(C)o3)n2)cc1 (stereo not drawn) | inactive: 9.14%
C=C[C@@H]1c2cc(C)ccc2N(S(=O)(=O)c2ccc(C)cc2)[C@H](c2ccccc2)C1(C#N)C#N | inconclusive: -33%
O=C(COc1ccc([N+](=O)[O-])cc1)Nc1ccc2c(c1)nc1n2CCOC1 | inconclusive: -30.7%
COc1ccc(C)cc1S(=O)(=O)N1CCN(S(=O)(=O)c2cc(C(=O)O)ccc2C)CC1 | inconclusive: -47.9%
CCOC(=O)C1=C(SCC)c2cc3c(n2C1=O)CCCC3 | inactive: -8.52%
COCCN(CC(=O)Nc1ccc(F)cc1)S(=O)(=O)c1ccc(S(=O)(=O)N2CCCC2)cc1 | inconclusive: -44.4%
CC(C)NC(=O)N(O)C1N(Cc2ccc3c(c2)OCO3)C(=S)SC1(C)C (stereo not drawn) | inconclusive: -33.5%
Cc1cc(C)c(C(=O)Nc2ccc(Br)c(C(F)(F)F)c2)c(C)c1 | inactive: 15.4%
Cn1c(SCC(=O)Nc2cccc(Br)c2)nnc1-c1cc2ccccc2o1 | inactive: 17.3%
CCOc1ccc(N2C(=O)Nc3ccc(Br)cc3C2(O)C(=O)NCCCN(C)C)cc1 (stereo not drawn) | inconclusive: -35%
COc1cc2nc(C3CCC3)n(N)c(=O)c2cc1OC | inconclusive: -34.9%
CCSc1ccc([C@@H]2[C@@H]3C(=O)N(CC)C(=O)[C@@H]3[C@]3(C(=O)OC)CCCN23)cc1 | inactive: 5.51%
CCc1nc2ccc(C(=O)Nc3cccc(NS(C)(=O)=O)c3)cn2c1N(C)C(=O)c1cccc(OC)c1 | inconclusive: -32.4%
CC(=O)OCc1nc2ccccc2s1 | inconclusive: -33.9%
CC(C)c1cnc2c(c1SCc1ccc([N+](=O)[O-])cc1)c(=O)n(C)c(=O)n2C | inconclusive: -30.4%
CC(C)(C)NC(=O)CN(C(=O)CCC(=O)Nc1nccs1)c1ccc2c(c1)OCCO2 | inactive: 30.3%
N#CCCN1CCCN(CCC#N)CCN(CCC#N)CCCN(CCC#N)CC1 | inconclusive: -36.1%
COc1ccc(N/N=C(\C#N)C(N)=O)cc1 | inactive: 17.3%
CCOC(=O)c1sc(N/N=C/c2ccc(N(C)C)cc2)nc1C | inconclusive: -44.2%
Brc1ccc(-c2ncc(-c3ccccc3)cn2)cc1 | inconclusive: -34.6%
